For some of these results: Weaker means in comparison with the reference protein, sequence or condition of that experiment. Where a protein sequence is shown, tags need not be part of it. For some of these results: Construct, isoform or probe ends are uncertain for at least one entry. For some of these results: At least one verdict was read from the data and is not stated in words by the source.
Experiments:
Assay in all cases: EMSA
ZCCHC4 24-513 WT (human) = biological target: T1, ZCCHC4 24-513 WT (human) (UniProt Q9H5U6); details: EMSA: 20 mM Tris-HCl pH 7.5, 100 mM NaCl, 5% glycerol, 1 mM DTT, 4 C, 1 h; 0.3 uM RNA with 0-1.2 uM protein unless noted; 6% TBE native gel; recombinant …; residues 24-513; protein details: His6-SUMO removed by ULP1; label: none (SYBR Gold stain)
T1 sequence (looked up): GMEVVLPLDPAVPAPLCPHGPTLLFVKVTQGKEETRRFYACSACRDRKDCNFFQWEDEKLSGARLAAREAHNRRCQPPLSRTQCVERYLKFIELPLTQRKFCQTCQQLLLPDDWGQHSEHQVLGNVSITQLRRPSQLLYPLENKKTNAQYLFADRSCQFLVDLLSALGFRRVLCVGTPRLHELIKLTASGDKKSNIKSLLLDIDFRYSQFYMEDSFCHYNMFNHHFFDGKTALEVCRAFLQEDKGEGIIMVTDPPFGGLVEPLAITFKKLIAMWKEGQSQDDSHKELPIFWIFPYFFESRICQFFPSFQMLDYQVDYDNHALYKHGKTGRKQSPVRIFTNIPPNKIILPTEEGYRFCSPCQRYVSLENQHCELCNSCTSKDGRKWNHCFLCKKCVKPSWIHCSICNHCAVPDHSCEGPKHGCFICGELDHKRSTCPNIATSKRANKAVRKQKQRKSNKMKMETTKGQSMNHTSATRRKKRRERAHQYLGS

ZCCHC4 dCCHC (human) = biological target: T2, ZCCHC4 dCCHC (human) (UniProt Q9H5U6); details: EMSA: 20 mM Tris-HCl pH 7.5, 100 mM NaCl, 5% glycerol, 1 mM DTT, 4 C, 1 h; 0.3 uM RNA with 0-1.2 uM protein unless noted; 6% TBE native gel; recombinant …; residues 24-368; protein details: His6-SUMO removed by ULP1; label: none (SYBR Gold stain)
T2 sequence (looked up): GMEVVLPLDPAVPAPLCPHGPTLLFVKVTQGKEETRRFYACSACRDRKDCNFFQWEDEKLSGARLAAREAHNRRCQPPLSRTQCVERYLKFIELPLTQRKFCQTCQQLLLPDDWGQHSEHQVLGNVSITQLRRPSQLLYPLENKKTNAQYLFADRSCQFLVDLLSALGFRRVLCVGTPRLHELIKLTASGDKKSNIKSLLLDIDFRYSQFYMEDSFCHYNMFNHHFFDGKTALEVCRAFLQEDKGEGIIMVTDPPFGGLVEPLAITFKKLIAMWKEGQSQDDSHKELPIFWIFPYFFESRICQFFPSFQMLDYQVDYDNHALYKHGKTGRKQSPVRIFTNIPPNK

ZCCHC4 dGRF (human) = biological target: T3, ZCCHC4 dGRF (human) (UniProt Q9H5U6); details: EMSA: 20 mM Tris-HCl pH 7.5, 100 mM NaCl, 5% glycerol, 1 mM DTT, 4 C, 1 h; 0.3 uM RNA with 0-1.2 uM protein unless noted; 6% TBE native gel; recombinant …; residues 100-464; protein details: His6-SUMO removed by ULP1; label: none (SYBR Gold stain)
T3 sequence (looked up): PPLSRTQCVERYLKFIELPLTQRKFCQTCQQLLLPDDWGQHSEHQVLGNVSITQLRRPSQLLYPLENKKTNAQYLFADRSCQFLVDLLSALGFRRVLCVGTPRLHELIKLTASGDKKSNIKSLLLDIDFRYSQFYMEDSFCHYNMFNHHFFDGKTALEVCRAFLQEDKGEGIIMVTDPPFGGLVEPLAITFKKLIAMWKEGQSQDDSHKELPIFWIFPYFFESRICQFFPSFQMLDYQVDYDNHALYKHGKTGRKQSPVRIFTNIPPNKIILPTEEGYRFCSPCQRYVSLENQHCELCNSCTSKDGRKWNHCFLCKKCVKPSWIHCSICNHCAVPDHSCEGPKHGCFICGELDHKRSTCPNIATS

ZCCHC4 dGRF-C2H2 (human) = biological target: T4, ZCCHC4 dGRF-C2H2 (human) (UniProt Q9H5U6); details: EMSA: 20 mM Tris-HCl pH 7.5, 100 mM NaCl, 5% glycerol, 1 mM DTT, 4 C, 1 h; 0.3 uM RNA with 0-1.2 uM protein unless noted; 6% TBE native gel; recombinant …; residues 159-464; protein details: His6-SUMO removed by ULP1; label: none (SYBR Gold stain)
T4 sequence (looked up): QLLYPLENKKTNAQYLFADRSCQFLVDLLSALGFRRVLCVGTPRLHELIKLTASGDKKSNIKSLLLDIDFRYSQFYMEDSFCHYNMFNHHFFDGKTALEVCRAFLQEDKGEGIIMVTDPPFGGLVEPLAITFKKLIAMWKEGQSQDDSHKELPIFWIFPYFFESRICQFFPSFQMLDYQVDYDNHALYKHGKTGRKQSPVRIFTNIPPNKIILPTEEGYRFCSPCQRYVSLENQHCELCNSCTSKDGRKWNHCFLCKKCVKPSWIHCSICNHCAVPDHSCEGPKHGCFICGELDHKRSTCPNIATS

“CGGUACACCUGUCAAACGGUAACGCAGGUG [30-mer 28S rRNA]”: binds (ZCCHC4 24-513 WT (human)); binds more weakly (ZCCHC4 dCCHC (human)); binds more weakly (ZCCHC4 dGRF (human)). “CGGUACACCUGUCAAACGGUAACGCAGGUG [30-mer 28S rRNA]”: binds more weakly (ZCCHC4 dGRF-C2H2 (human)).

Source: publication PMC6834594, “Structure and regulation of ZCCHC4 in m^6A-methylation of 28S rRNA” (Nature Communications, 2019)
